In article PMC12670160, “A drug-repurposing screen of FDA- and EMA-approved drugs identifies two NF-κB inhibitors active against eumycetoma” (Journal of Antimicrobial Chemotherapy, 2025):
Counter-ions that a name gives are not always drawn. In all, about 5,300 compounds went through this assay and about 130 (2.5%) showed an effect of 50% or more. The list shows a part of the results. Peptide text beside a SMILES is read from it.

System: M. mycetomatis strain mm55
Conditions: primary screen, metabolic activity vs growth control; 96 h, 2 µM; inhibitor

SMILES | % viability [%]
O=C(O)C1=C(CSc2nnnn2CS(=O)(=O)O)CS[C@@H]2[C@H](NC(=O)[C@H](O)c3ccccc3)C(=O)N12 [ONC0002051, cefonicid sodium] | 74.35
Nc1nc(NC[C@H]2CC[C@H](CNS(=O)(=O)c3cccc4ccccc34)CC2)nc2ccccc12 [ONC0003045, cgp71683] | 64.43
CCCOC(=O)c1ccc(O)cc1 [ONC0002901, propyl 4hydroxybenzoate] | 96.08
Cc1ccc(-c2cc(C(F)(F)F)nn2-c2ccc(S(N)(=O)=O)cc2)cc1 [ONC0002376, celecoxib] | 59.93
COc1ccc(C(=O)Nc2c(Cl)cncc2Cl)cc1OC1CCCC1 [ONC0004409, piclamilast] | 122.5
O=C1C(Cl)=C(N2CCOCC2)C(=O)N1c1ccc(Cl)c(Cl)c1 [ONC0005217, ri1] | 119.3
Cc1ccc(NC(=O)CCCCCC(=O)Nc2ccccc2N)cc1 [ONC0002492, tch106] | 70.05
Nc1ccc(S(=O)(=O)Nc2nccs2)cc1 [ONC0000451, sulfathiazole] | 78.55
O=C(O)c1cccc(-c2noc(-c3ccccc3F)n2)c1 [ONC0004778, ptc124 ataluren] | 74.44
CC(CNC1CCCCC1)OC(=O)c1ccccc1 (centres unmarked) [ONC0002941, hexylcaine] | 55.94
O=C1c2c(O)cccc2[C@H]([C@@H]2O[C@H](CO)[C@@H](O)[C@H](O)[C@H]2O)c2cc(CO)cc(O)c21 [ONC0002367, aloin] | 94.66
O=C1Nc2ccccc2C2=NC(CN3CCN(c4ccccc4)CC3)CN12 (centres unmarked) [ONC0000247, 2pmdq] | 73.07
CC1(C)S[C@@H]2[C@H](NC(=O)C(C(=O)O)c3ccsc3)C(=O)N2[C@H]1C(=O)O (some centres unmarked) [ONC0001093, ticarcillin disodium] | 54.99
COCCNC(=O)COc1ccc(OCCNC[C@H](O)COc2ccccc2)cc1 [ONC0001450, zd7114] | 94.55
CN[C@H]1CC[C@@H](c2ccc(Cl)c(Cl)c2)c2ccccc21 [ONC0004253, sertraline hydrochloride] | 76.5
CC(C)NCC(O)c1ccc([N+](=O)[O-])cc1 (centres unmarked) [ONC0002319, nifenalol] | 49.56
CN1CCc2nc(C(=O)N[C@@H]3C[C@@H](C(=O)N(C)C)CC[C@@H]3NC(=O)C(=O)Nc3ccc(Cl)cn3)sc2C1 [ONC0004435, edoxaban] | 125
Nc1nc(OCC2CCCCC2)c2nc[nH]c2n1 [ONC0002589, nu2058] | 81.23

Quoted from the listing:
Entry for Cc1ccc(NC(=O)CCCCCC(=O)Nc2ccccc2N)cc1 [ONC0002492, tch106] under % viability [%]: 70.05
Entry for CCCOC(=O)c1ccc(O)cc1 [ONC0002901, propyl 4hydroxybenzoate] under % viability [%]: 96.08

Remaining list, next part.

SMILES | % viability [%]
OCCn1cc(-c2ccc3c(c2)CC/C3=N\O)c(-c2ccncc2)n1 [ONC0001470, gdc0879] | 74.46
CC[C@H]1OC(=O)[C@H](C)[C@@H](O[C@H]2C[C@@](C)(OC)[C@@H](O)[C@H](C)O2)[C@H](C)[C@@H](O[C@@H]2O[C@H](C)C[C@H](N(C)C)[C@H]2O)[C@](C)(O)C[C@@H](C)CN(C)[C@H](C)[C@@H](O)[C@]1(C)O [ONC0002760, azithromycin] | 120.4
COC1[C@@H](O)[C@@H](O)C(O)[C@H](O)[C@H]1O (some centres unmarked) [ONC0004122, dpinitol] | 134.1
CCOC(=O)C1=C(C)NC(=S)NC1c1cccc(O)c1 (centres unmarked) [ONC0001463, monastrol] | 76.62
CN(C)C(=O)CCSC(SCCC(=O)O)c1cccc(/C=C/c2ccc3ccc(Cl)cc3n2)c1 (centres unmarked) [ONC0000871, mk571 sodium salt] | 101.7
C[C@@H]1CCC[C@H](C)N1NC(=O)c1ccc(Cl)c(S(N)(=O)=O)c1 [ONC0004337, clopamide] | 94.67
COC(=O)[C@H](Cc1ccccc1)NC(=O)[C@@H](N)CC(=O)O [ONC0004175, aspartame] (H-Asp-Phe-OMe) | 88.61
C[C@H]1CC[C@@]2(OC1)O[C@H]1C[C@H]3[C@@H]4CC[C@@H]5C[C@@H](O)CC[C@]5(C)[C@H]4CC[C@]3(C)[C@H]1[C@@H]2C [ONC0005459, sarsasapogenin] | 108.9
CCS(=O)(=O)c1cccc(-c2cc(C(=O)NC3CCN(C)CC3)c(C)c3[nH]c4ncc(C)cc4c23)c1 [ONC0004401, tak901] | 123.3
O=C(/C=C/c1ccc(O)c(O)c1)O[C@H](Cc1ccc(O)c(O)c1)C(=O)O [ONC0000055, rosmarinicacid] | 73.97
Cc1cccc(C)c1-n1c(=O)c2cnc(Nc3ccc(N4CCN(C)CC4)cc3)nc2n2c3ccccc3nc12 [ONC0001343, tcs7003] | 88.83
NC(=O)C1CCCc2c1[nH]c1ccc(Cl)cc21 (centres unmarked) [ONC0004691, ex 527] | 91.88
C[C@@H](N)Cc1c[nH]cn1 [ONC0001667, alphamethylhistaminedihydrobromider] | 75.04
CC(C)(C)c1ccc(NC(=O)N2CCN(c3ncccc3Cl)CC2)cc1 [ONC0001531, bctc] | 71.37
C=C[C@](C)(O)CC[C@@H]1[C@@]2(C)CCCC(C)(C)[C@@H]2CC[C@@]1(C)O [ONC0004942, sclareol] | 82.31
O=C(O)c1c2ccccc2cc2ccccc12 [ONC0001651, 9anthracenecarboxylicacid] | 71.02
COc1ccc(-c2cc(=O)c3c(O)c(OC)c(O)cc3o2)cc1OC [ONC0000908, eupatilin] | 85.5
Cc1ccccc1N=Nc1ccc(N=Nc2c(O)ccc3ccccc23)c(C)c1 [ONC0003430, solvent red 24] | 74.44
Cc1cc(Oc2ccc3nc(COc4ccc(CC5SC(=O)NC5=O)cc4)n(C)c3c2)cc(C)c1N (centres unmarked) [ONC0001010, inolitazone dihydrochloride] | 82.01
